We go through two molecules from publication PMC10840202.

Amino acid sequences for entries named in this document (tags omitted).
UniProt P10275: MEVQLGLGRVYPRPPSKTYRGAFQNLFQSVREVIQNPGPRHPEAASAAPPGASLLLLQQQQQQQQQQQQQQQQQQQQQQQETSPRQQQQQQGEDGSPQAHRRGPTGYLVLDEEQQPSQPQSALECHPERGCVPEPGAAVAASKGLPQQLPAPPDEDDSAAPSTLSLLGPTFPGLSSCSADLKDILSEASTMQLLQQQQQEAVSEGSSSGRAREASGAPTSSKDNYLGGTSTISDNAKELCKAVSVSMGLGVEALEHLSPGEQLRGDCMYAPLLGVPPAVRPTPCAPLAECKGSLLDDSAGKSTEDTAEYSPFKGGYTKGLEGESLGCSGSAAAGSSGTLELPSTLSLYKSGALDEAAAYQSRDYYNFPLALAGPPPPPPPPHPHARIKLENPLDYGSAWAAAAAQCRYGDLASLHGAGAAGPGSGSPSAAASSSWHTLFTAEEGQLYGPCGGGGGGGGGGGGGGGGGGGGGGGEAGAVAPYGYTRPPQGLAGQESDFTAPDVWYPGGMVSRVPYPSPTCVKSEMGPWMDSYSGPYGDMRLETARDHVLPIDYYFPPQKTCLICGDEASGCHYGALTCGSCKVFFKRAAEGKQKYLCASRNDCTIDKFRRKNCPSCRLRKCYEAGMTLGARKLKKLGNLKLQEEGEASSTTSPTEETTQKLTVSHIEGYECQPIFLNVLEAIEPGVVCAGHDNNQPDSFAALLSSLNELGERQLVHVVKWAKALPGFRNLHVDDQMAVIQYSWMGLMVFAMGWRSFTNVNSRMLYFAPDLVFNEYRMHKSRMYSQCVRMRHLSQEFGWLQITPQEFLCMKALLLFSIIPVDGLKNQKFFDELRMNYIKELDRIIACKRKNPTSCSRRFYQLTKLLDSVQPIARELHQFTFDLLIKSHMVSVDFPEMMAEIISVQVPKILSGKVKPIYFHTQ
UniProt P23771: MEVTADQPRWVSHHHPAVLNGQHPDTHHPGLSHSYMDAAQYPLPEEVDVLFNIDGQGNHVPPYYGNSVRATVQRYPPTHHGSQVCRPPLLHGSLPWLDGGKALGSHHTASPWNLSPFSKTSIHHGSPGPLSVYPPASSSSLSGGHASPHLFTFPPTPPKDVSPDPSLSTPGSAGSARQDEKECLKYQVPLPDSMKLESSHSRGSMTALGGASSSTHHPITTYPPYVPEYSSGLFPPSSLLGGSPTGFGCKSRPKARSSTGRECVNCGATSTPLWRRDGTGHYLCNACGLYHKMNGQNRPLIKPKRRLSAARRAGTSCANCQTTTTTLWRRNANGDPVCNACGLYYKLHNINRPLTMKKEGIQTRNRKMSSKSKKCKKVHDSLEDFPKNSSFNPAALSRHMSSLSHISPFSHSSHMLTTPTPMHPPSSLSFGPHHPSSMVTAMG

Like-named read-outs stand apart in the source and are kept apart here. Results are given in words; binding and its absence hold for the method and conditions named. Binding seen in cells or lysates may run through a third protein. Here binding means that the protein was enriched with, or labelled near, the bait; the list need not be complete.

Experiment [1] has as its target androgen receptor (human (endogenous in ZR-75-1, T-47D, MDA-MB-453, MFM-223 cells and human breast tissue)) (UniProt P10275). In words: affinity purification with mass spectrometry; RIME: cells in growth medium cross-linked with 1% formaldehyde for 7 min, chromatin isolated and sonicated, immunoprecipitated with AR antibody on magnetic beads, on-bead digestion, Nano-LC-MS/MS; hits found in 3 of 3 replicates and not in IgG controls.

The target is the same in experiment [2]. Described as above. The source holds these as a separate data set.

With GATA3 (from UniProt P23771 1-443), the binding result in experiment [1] was “binds”.

B1: FOXA1 (protein, UniProt P55317 1-472)
chain: MLGTVKMEGHETSDWNSYYADTQEAYSSVPVSNMNSGLGSMNSMNTYMTMNTMTTSGNMTPASFNMSYANPGLGAGLSPGAVAGMPGGSAGAMNSMTAAGVTAMGTALSPSGMGAMGAQQAASMNGLGPYAAAMNPCMSPMAYAPSNLGRSRAGGGGDAKTFKRSYPHAKPPYSYISLITMAIQQAPSKMLTLSEIYQWIMDLFPYYRQNQQRWQNSIRHSLSFNDCFVKVARSPDKPGKGSYWTLHPDSGNMFENGCYLRRQKRFKCEKQPGAGGGGGSGSGGSGAKGGPESRKDPSGASNPSADSPLHRGVHGKTGQLEGAPAPGPAASPQTLDHSGATATGGASELKTPASSTAPPISSGPGALASVPASHPAHGLAPHESQLHLKGDPHYSFNHPFSINNLMSSSEQQHKLDFKAYEQALQYSPYGSTLPASLPLGSASVTTRSPIEPSALEPAYYQGVYSRPVLNTS
With B1, the binding result in experiment [2] is recorded as “binds”.
